Assay results from PMC9500918, “Extended N-Terminal Acetyltransferase Naa50 in Filamentous Fungi Adds to Naa50 Diversity” (International Journal of Molecular Sciences, 2022).

Protein sequences, listed by entry. Tags and fused reporters are not part of them. Lines headed by an entry give the natural chain unless they say otherwise; changes in a name come on top.
UniProt G0S4M4: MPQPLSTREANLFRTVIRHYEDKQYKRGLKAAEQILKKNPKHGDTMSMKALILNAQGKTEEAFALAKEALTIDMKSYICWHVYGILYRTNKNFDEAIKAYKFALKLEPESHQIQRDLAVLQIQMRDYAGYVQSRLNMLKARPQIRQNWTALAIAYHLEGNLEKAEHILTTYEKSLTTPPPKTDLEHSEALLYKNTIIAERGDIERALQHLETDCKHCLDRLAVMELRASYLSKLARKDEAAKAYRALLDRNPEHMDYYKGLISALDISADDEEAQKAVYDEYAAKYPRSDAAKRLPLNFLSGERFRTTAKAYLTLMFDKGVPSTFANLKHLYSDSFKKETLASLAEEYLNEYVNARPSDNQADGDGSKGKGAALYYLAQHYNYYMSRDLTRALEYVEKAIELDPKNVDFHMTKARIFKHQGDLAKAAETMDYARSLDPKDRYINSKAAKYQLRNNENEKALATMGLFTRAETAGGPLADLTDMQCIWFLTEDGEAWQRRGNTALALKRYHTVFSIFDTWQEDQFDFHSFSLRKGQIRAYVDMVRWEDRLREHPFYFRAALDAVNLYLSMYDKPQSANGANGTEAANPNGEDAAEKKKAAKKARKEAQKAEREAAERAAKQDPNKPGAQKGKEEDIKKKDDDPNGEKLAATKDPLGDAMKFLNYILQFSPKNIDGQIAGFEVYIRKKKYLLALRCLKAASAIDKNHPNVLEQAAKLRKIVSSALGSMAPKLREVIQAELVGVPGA
UniProt G0SCY6: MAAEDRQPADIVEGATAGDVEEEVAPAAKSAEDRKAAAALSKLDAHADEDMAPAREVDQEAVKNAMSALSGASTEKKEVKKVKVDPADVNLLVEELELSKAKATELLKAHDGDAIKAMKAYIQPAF
UniProt G0SEF8: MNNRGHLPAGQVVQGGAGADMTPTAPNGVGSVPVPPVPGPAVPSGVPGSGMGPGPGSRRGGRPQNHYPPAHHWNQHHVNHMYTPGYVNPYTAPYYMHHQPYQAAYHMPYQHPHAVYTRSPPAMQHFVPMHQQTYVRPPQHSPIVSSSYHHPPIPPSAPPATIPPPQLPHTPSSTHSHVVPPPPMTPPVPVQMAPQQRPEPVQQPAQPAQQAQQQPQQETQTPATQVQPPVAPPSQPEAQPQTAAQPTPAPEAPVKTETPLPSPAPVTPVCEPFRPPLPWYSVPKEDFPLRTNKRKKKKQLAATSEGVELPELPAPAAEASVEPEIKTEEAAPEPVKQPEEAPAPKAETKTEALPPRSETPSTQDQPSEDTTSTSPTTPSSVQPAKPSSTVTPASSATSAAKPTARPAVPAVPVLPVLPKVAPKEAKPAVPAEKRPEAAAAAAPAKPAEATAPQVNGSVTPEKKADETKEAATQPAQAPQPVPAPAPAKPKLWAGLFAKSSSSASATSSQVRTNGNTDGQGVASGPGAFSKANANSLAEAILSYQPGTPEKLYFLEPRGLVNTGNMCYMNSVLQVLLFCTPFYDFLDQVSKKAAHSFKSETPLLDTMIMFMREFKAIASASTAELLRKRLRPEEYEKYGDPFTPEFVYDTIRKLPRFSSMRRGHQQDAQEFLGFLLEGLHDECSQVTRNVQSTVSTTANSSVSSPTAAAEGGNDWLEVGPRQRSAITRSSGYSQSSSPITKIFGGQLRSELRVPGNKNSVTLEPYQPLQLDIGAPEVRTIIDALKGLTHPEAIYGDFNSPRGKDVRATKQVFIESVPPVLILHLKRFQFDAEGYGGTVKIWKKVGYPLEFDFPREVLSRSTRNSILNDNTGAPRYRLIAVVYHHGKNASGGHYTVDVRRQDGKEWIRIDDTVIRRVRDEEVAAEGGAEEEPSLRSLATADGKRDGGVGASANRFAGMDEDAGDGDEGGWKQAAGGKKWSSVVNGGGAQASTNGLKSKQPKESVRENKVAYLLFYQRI

Target: full-length CtNaa15 with C-terminal Flag-TEV-protein A tag (Chaetomium thermophilum) (UniProt G0S4M4)
Test: affinity purification with mass spectrometry; pull-out of protein A-tagged Naa15 or Naa50 from C. thermophilum lysate on IgG Sepharose; TMT LC-MS/MS in triplicates against mock-purified wild-type lysate

| Substance | binding |
| --- | --- |
| CtHypK (endogenous) (from UniProt G0SCY6) | binds |
| ubiquitin carboxyl-terminal hydrolase-like protein (from UniProt G0SEF8) | binds |

Results are given in words; binding and its absence hold for the method and conditions named. Binding seen in cells or lysates may run through a third protein. These calls come from enrichment with a bait or labelling near it, and not all partners need be listed.
